The targets with a hit were mostly taken out for another list; the other results follow. Single values of this set are uncertain. Only a part is listed here, and it is no random draw.
Compound: COC(=O)/C=C/c1ccccc1 [methyl cinnamate]
Assay: log2 ratio of iodoacetamide-alkyne labeling of the cysteine site, DMSO over compound (competition); higher = stronger covalent engagement of the cysteine by the compound, active = 1 or more
Settings: 500 µM; treatment time 1 h; system: HEK293T cell lysate
In short: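 Reporter intensities give each cysteine's log2 competition ratio as the mean of control channels over the mean of compound channels. The samples were HEK293T lysate (2 mg/mL) given vehicle or electrophile (500 µM, 1 h, ambient temperature), then iodoacetamide alkyne (1 h), followed by click coupling to sCIP-TMT reagents, pooling, trypsin digestion overnight at 37 °C, streptavidin enrichment, acid elution, Orbitrap Eclipse LC-MS/MS with FAIMS and FragPipe quantification. Duplicate channels and three replicates were run, and cysteines quantified in only one replicate were discarded.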

Chains of the proteins cited; added tags and fusions are not shown. Lines headed by an entry give the natural chain unless they say otherwise; changes in a name come on top.
UniProt Q63HQ0: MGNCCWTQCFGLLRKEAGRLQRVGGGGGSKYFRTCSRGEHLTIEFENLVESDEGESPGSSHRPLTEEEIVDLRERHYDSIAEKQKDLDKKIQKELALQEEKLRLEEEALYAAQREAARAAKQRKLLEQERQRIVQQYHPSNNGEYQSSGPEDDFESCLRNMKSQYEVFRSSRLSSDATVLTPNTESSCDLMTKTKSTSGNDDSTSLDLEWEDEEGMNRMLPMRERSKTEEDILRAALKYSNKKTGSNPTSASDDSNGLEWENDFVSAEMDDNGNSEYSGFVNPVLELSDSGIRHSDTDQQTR
UniProt Q5VUA4: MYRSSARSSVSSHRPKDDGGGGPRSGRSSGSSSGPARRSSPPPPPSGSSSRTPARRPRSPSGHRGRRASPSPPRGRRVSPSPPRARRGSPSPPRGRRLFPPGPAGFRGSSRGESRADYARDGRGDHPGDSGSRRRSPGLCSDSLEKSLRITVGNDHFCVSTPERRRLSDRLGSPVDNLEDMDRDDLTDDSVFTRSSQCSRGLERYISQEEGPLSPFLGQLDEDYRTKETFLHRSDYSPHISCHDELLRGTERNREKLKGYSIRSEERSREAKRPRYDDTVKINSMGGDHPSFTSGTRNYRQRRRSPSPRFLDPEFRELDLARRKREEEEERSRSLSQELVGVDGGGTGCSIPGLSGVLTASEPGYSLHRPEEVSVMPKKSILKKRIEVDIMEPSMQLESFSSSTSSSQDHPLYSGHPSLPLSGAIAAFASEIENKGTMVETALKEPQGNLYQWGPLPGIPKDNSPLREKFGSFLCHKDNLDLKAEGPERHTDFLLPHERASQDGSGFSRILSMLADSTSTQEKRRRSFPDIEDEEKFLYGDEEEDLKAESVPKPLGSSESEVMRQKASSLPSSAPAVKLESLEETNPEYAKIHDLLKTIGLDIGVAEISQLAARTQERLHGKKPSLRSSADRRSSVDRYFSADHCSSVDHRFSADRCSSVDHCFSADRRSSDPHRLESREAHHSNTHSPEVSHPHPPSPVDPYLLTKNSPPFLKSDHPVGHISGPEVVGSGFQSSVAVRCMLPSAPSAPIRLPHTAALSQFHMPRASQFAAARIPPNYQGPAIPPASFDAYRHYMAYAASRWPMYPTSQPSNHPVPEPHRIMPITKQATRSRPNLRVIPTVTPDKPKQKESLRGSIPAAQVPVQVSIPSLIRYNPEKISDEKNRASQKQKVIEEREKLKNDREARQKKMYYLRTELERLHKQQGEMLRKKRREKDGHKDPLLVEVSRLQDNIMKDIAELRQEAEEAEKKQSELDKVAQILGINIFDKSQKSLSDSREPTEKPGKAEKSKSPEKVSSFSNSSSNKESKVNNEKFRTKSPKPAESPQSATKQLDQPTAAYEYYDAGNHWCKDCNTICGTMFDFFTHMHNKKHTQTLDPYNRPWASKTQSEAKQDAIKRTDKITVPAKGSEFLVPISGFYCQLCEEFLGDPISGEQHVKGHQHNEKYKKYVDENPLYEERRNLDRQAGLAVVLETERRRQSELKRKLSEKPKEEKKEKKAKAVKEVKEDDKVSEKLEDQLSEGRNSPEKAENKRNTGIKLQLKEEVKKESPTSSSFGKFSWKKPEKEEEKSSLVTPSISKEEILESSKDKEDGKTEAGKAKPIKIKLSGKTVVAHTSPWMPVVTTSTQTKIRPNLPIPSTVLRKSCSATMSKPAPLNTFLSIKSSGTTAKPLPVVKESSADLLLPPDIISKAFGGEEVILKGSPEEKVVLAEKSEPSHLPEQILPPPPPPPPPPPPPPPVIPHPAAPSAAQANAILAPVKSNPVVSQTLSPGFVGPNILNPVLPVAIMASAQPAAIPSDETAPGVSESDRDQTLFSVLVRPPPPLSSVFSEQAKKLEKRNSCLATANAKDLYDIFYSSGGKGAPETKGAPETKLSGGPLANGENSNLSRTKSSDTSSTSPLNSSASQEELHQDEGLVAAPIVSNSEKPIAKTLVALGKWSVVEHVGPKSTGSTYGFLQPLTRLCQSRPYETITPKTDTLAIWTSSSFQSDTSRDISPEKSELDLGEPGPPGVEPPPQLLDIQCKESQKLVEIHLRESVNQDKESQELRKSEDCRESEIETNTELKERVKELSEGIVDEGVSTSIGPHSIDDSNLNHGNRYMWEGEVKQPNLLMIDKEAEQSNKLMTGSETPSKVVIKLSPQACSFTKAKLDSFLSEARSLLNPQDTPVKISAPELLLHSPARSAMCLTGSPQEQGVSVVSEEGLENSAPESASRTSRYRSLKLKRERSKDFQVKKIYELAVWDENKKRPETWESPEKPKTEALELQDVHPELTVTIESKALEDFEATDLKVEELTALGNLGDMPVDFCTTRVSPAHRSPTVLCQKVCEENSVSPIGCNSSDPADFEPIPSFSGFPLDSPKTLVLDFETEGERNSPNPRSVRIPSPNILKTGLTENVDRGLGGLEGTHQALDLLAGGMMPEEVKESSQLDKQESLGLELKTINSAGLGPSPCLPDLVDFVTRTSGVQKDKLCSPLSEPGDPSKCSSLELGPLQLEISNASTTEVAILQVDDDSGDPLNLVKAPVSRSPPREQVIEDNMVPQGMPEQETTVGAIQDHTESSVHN
UniProt Q5HYI8: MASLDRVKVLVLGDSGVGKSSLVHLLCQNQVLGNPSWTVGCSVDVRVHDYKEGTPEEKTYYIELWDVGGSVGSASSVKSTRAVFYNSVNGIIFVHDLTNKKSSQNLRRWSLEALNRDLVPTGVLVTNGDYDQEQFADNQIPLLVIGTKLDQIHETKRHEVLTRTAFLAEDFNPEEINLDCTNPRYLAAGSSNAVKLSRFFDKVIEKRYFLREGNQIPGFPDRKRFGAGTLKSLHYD
UniProt Q5TFE4: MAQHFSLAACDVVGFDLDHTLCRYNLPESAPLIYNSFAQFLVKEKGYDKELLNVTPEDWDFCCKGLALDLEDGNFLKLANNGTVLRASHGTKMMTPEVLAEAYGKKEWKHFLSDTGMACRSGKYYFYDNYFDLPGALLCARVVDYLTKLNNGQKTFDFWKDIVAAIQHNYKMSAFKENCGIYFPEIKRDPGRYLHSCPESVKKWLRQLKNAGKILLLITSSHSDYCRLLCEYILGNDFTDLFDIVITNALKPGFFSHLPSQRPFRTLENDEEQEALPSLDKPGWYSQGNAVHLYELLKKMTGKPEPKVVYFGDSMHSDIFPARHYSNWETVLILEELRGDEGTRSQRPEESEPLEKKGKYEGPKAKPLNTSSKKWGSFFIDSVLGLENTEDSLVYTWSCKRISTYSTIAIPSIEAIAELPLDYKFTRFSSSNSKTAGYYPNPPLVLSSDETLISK
UniProt Q6FI81: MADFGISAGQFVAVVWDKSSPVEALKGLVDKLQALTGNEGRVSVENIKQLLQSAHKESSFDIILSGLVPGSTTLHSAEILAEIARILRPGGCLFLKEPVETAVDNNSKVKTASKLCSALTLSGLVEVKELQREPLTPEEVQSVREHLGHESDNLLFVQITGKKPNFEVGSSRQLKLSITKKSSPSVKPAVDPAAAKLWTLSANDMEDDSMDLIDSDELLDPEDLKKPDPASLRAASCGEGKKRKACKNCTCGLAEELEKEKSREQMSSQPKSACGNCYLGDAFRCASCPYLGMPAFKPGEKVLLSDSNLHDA
UniProt Q6YHU6: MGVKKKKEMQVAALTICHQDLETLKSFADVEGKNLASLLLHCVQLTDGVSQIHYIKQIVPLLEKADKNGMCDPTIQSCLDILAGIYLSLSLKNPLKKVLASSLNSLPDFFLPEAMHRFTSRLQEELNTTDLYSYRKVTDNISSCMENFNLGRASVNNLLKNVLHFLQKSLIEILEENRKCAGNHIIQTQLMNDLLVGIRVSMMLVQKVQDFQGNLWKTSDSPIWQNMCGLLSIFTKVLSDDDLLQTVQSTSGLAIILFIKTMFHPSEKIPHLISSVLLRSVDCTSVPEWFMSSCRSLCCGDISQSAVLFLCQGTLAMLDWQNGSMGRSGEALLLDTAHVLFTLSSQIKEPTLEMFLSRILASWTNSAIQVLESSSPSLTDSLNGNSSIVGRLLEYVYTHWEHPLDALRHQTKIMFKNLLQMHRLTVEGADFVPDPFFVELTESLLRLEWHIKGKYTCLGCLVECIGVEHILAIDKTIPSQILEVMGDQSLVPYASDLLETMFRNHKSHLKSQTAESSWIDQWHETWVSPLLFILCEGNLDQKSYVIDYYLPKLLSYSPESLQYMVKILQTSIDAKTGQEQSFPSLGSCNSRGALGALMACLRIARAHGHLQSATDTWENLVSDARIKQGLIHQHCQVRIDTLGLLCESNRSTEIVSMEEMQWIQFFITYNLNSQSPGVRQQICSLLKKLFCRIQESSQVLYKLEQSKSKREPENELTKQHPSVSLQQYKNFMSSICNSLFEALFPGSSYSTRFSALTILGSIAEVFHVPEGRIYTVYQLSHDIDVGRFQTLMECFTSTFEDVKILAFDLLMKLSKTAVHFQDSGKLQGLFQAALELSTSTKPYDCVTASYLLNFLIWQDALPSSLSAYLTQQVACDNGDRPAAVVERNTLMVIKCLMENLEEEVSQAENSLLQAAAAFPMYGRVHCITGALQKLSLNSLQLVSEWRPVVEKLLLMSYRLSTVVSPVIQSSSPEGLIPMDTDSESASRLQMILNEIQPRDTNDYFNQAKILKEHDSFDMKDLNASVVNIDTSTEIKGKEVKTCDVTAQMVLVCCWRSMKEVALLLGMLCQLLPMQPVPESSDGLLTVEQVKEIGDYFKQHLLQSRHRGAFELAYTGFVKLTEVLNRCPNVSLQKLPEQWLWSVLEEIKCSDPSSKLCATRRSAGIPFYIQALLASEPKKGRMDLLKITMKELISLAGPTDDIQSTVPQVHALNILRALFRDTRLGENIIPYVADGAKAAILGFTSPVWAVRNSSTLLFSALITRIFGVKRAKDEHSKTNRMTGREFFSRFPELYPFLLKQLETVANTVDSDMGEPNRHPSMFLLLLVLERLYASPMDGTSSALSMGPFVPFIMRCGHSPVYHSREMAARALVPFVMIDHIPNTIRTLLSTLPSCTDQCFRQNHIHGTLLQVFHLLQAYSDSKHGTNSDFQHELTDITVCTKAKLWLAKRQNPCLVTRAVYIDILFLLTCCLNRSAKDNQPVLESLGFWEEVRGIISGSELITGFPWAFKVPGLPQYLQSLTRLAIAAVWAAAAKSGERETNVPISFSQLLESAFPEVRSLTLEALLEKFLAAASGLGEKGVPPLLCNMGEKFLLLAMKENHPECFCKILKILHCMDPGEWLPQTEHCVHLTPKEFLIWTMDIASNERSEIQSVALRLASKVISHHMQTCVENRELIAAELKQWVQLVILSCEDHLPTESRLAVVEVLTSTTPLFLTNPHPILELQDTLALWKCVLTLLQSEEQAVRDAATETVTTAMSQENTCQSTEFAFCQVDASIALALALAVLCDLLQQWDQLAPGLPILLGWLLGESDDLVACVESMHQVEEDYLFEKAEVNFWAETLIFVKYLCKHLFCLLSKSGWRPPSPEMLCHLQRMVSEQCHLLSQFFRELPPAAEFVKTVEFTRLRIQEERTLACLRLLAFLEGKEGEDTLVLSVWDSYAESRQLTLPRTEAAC
UniProt Q5H9R7: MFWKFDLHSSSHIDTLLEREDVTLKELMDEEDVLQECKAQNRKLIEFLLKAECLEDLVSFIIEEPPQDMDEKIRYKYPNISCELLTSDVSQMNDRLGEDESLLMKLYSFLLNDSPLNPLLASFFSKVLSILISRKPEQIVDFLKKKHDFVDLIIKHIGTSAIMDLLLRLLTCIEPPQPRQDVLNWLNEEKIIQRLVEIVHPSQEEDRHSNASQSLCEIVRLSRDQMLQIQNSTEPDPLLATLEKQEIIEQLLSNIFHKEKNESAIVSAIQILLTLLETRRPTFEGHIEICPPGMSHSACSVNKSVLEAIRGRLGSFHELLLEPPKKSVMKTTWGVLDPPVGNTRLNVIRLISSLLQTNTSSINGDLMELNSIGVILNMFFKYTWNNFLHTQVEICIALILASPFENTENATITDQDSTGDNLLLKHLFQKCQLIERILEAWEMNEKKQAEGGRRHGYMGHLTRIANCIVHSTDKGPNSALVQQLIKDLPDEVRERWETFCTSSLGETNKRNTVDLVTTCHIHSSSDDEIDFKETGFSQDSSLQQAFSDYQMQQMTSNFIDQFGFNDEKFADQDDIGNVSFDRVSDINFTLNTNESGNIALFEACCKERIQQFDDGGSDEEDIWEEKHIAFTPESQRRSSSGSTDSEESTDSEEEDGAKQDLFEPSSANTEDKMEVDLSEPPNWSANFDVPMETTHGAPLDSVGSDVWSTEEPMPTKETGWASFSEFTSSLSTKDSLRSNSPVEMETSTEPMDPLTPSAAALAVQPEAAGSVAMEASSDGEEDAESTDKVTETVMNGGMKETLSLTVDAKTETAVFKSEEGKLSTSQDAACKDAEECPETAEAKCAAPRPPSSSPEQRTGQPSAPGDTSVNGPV

Target | log2 ratio of iodoacetamide-alkyne labeling
CWF19L1 C288 (UniProt Q69YN2) | inactive: 0.185
UniProt Q63HQ0_C157 | inactive: 0.312
ZNF318 C349 (UniProt Q5VUA4) | inactive: -0.149
ATPAF1 C121 (UniProt Q5TC12) | inactive: 0.478
EDC4 C4 (UniProt Q6P2E9) | inactive: 0.023
WDR73 C352 (UniProt Q6P4I2) | inactive: -0.453
ZNF318 C1559 (UniProt Q5VUA4) | inactive: 0.113
RABL3 C180 (UniProt Q5HYI8) | inactive: -0.0544
WDR73 C259 (UniProt Q6P4I2) | inactive: -0.0727
MTHFD1L C778 (UniProt Q6UB35) | inactive: 0.301
BCOR C1044 (UniProt Q6W2J9) | inactive: 0.247
INTS5 C514 (UniProt Q6P9B9) | inactive: -0.227
NT5DC1 C179 (UniProt Q5TFE4) | inactive: 0.161
TRIM65 C500 (UniProt Q6PJ69) | inactive: 0.0817
PITRM1 C556 (UniProt Q5JRX3) | inactive: 0.264
UniProt Q6ZS17_C1137 | inactive: 0.107
CIAPIN1 C237 (UniProt Q6FI81) | inactive: 0.374
THADA C283 (UniProt Q6YHU6) | inactive: 0.419
TMEM214 C392 (UniProt Q6NUQ4) | inactive: 0.0654

Target | log2 ratio of iodoacetamide-alkyne labeling
MPRIP C831 (UniProt Q6WCQ1) | inactive: -0.0326
UniProt Q5H9R7_C500 | inactive: -0.179
NIPBL C304 (UniProt Q6KC79) | inactive: 0.314
DENND4C C126 (UniProt Q5VZ89) | inactive: 0.188
SFXN4 C70 (UniProt Q6P4A7) | inactive: 0.228
IQSEC1 C260 (UniProt Q6DN90) | inactive: 0.0889
LARP1 C864 (UniProt Q6PKG0) | inactive: 0.216
MTHFD1L C828 (UniProt Q6UB35) | inactive: -0.0577
CEP78 C653 (UniProt Q5JTW2) | inactive: 0.254
NUP188 C9 (UniProt Q5SRE5) | inactive: 0.283
SAMD4B C226 (UniProt Q5PRF9) | inactive: -0.00048
SARM1 C311 (UniProt Q6SZW1) | inactive: 0.286
UniProt Q5VUJ6_C145 | inactive: 0.12
ZC3H14 C622 (UniProt Q6PJT7) | inactive: -0.185
TWF2 C141 (UniProt Q6IBS0) | inactive: 0.222
DENND4C C955 (UniProt Q5VZ89) | inactive: 0.272
AARS2 C609 (UniProt Q5JTZ9) | inactive: -0.0443
LIN28B C201 (UniProt Q6ZN17) | inactive: 0.283
ZNF318 C1903 (UniProt Q5VUA4) | inactive: 0.567

Reprinted from the entries so far (two entries):
Target | log2 ratio of iodoacetamide-alkyne labeling
CIAPIN1 C237 (UniProt Q6FI81) | inactive: 0.374
THADA C283 (UniProt Q6YHU6) | inactive: 0.419

Source: the supplement of paper PMC11006884
